Measurements published in the supplement of paper PMC10849652.
This is one part of the list.

Amino acid sequences for entries named in this document (tags omitted). A change or cut given only in a name is not applied to a line headed by its entry.
UniProt Q13464: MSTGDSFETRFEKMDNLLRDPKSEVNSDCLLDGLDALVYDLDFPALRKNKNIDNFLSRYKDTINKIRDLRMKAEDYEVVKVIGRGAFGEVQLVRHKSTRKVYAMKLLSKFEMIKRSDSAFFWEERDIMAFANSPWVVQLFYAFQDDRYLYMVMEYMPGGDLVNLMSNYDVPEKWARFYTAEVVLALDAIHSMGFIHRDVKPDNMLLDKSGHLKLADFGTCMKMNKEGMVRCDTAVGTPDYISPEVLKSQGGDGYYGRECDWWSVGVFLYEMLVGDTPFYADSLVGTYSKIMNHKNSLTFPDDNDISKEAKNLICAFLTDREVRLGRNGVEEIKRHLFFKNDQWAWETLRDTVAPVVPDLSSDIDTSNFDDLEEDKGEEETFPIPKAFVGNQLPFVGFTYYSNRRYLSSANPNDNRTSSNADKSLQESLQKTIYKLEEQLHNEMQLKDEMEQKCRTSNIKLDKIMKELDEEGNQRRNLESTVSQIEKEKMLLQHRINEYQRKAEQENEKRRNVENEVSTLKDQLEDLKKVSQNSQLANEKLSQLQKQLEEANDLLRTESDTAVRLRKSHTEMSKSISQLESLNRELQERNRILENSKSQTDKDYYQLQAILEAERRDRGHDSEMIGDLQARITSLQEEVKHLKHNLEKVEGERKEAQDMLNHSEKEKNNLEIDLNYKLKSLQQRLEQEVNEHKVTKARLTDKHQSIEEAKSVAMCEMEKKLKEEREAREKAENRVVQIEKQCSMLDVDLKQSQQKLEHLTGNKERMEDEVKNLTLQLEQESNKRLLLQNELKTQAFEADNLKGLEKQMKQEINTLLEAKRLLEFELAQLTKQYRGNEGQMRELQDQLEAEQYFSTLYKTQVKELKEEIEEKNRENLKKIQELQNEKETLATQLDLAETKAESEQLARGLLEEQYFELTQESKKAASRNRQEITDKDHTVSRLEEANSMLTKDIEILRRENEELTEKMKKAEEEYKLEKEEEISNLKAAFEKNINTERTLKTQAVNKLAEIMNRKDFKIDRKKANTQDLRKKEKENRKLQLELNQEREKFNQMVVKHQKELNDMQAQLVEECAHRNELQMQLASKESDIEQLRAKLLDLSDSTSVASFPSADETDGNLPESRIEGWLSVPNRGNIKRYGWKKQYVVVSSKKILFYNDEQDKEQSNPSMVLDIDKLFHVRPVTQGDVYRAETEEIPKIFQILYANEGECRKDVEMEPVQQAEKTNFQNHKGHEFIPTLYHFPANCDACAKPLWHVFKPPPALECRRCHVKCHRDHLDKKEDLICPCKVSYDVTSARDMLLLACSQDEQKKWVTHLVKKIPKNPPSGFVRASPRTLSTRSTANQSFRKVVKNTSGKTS

What was measured:
Experiment in all cases: log2 fold change, soluble protein after heating vs DMSO (PISA); higher = thermal stabilisation; K562 cells, 10 uM, 30 min; active = over 0.2 and 3.5 SD of the protein, either way, in both replicates (recomputed)
[1] = compound: C1=CC=C(C=C1)[C@H](COC2=CC3=C(C=C2)NC(=O)N3)NC(=O)C4=CC=CN(C4=O)CC5=CC(=C(C=C5)F)F
Summary of the method: (§1)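 Soluble protein was quantified by TMTpro 16plex LC-MS/MS after channel sums were equalised. It was obtained as the supernatant after 21,000xg for 90 min from pooled aliquots of K562 cells (2×10^6 cells/mL, 10 μM compound, 30 min) heated for 3 min across 48°C-58°C and extracted in PBS with 0.5% NP-40 at 4°C. Thermal stability values are relative to control samples and come from duplicates. They are given as log2 fold changes.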

[2] = compound: CC1=C(SC2=C1C(=N[C@H](C3=NN=C(N32)C)CC(=O)N)C4=CC=C(C=C4)Cl)C
Summary of the method: as §1

[3] = compound: CC1=C2C(=CC=C1)N=C(N(C2=O)C3=CC=CC=C3C)CN4C=NC5=C(N=CN=C54)N
Summary of the method: as §1

[4] = compound: Cc1sc2c(c1C)C(c1ccc(Cl)cc1)=N[C@@H](CC(=O)OC(C)(C)C)c1nnc(C)n1-2
Summary of the method: as §1

[5] = compound: c1ccc([C@@H]2C[C@H]2NC2CCNCC2)cc1
Summary of the method: as §1

Measured: log2 fold change

RPL7 (UniProt P18124)
inactive: [1] 0.293 | [2] -0.502 | [3] -0.694 | [4] 0.345 | [5] 0

ROCK1 (UniProt Q13464)
inactive: [1] -0.017 | [2] 0.027 | [3] 0.032 | [4] -0.018 | [5] -0.015

RPS17 (UniProt P08708)
inactive: [1] 0.116 | [2] -0.162 | [3] -0.116 | [4] 0.063 | [5] 0

RPL13 (UniProt P26373)
inactive: [1] 0.25 | [2] -0.599 | [3] -0.664 | [4] 0.408 | [5] 0.022

RPL23A (UniProt P62750)
inactive: [1] 0.16 | [2] -0.256 | [3] -0.342 | [4] 0.156 | [5] 0

RPS12 (UniProt P25398)
inactive: [1] 0.032 | [2] -0.092 | [3] -0.066 | [4] 0.011 | [5] -0.019

RPL39P5 (UniProt Q59GN2)
inactive: [1] 0.215 | [2] -0.438 | [3] -0.263 | [4] 0.261 | [5] 0.028

RPL19 (UniProt P84098)
inactive: [1] 0.128 | [2] -0.311 | [3] -0.428 | [4] 0.208 | [5] -0.009

RPSA (UniProt P08865)
inactive: [1] 0.011 | [2] -0.024 | [3] 0.012 | [4] 0.039 | [5] 0.002
